Experimental data published in patent US20230416411A1.
These are yes or no findings as the source states them, for the method shown. Some entries that bind do so weakly or less than the wild type.

Amino acid sequences for entries named in this document (tags omitted). A change or cut given only in a name is not applied to a line headed by its entry.
UniProt P17643: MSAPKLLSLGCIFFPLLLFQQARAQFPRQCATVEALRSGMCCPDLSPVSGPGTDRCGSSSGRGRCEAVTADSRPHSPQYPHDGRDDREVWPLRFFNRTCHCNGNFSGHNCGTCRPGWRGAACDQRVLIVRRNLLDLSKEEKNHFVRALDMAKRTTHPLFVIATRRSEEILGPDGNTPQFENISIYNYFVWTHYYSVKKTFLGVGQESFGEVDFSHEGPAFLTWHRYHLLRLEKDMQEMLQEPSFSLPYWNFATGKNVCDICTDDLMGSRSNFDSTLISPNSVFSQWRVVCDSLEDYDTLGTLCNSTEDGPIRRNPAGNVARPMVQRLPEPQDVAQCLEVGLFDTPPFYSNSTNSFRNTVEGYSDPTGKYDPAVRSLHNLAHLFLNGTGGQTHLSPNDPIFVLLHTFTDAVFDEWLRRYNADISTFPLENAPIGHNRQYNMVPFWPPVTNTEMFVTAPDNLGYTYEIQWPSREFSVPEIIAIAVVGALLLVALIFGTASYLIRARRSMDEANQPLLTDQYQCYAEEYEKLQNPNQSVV
UniProt P07766: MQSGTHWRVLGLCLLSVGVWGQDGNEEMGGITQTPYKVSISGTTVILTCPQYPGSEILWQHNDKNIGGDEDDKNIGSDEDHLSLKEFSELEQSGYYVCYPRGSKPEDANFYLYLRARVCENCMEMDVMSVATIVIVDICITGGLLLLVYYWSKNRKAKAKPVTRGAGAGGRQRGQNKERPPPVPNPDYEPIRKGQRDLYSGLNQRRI

Assays:
[1] = molecular target: recombinant TYRP1 (Sino Biologicals) (human) (UniProt P17643); test: SPR, relative active concentration after stress
[2] = molecular target: human CD3 expressed on Jurkat NFAT reporter cells (human) (UniProt P07766); test: flow cytometry on Jurkat NFAT cells
[3] = molecular target: human CD3 expressed on Jurkat NFAT reporter cells (human) (UniProt P07766); test: flow cytometry on Jurkat NFAT cells, labelled anti-human Fc secondary antibody

binding [1]	binding [2]	binding [3]	Binder
binds			TYRP1 IgG (antibody, V domains shown) VH: QVQLVQSGAEVKKPGASVKVSCKASGFNIKDYFLHWVRQAPGQGLEWMGWINPDNGNTVYAQKFQGRVTMTADTSTSTVYMELSSLRSEDTAVYYCTRRDYTYEKAALDYWGQGTLVTVSS VL: DIQMTQSPSSLSASVGDRVTITCRASGNIYNYLAWYQQKPGKVPKLLIYDAKTLADGVPSRFSGSGSGTDFTLTISSLQPEDVATYYCQHFWSLPFTFGQGTKLEIK
	binds	binds	CD3opt human IgG1 PGLALA (antibody, V domains shown) VH: EVQLLESGGGLVQPGGSLRLSCAASGFQFSSYAMNWVRQAPGKGLEWVSRIRSKYNNYATYYADSVKGRFTISRDDSKNTLYLQMNSLRAEDTAVYYCVRHTTFPSSYVSYYGYWGQGTLVTVSS VL: QAVVTQEPSLTVSPGGTVTLTCGSSTGAVTTSNYANWVQEKPGQAFRGLIGGTNKRAPGTPARFSGSLLGGKAALTLSGAQPEDEAEYYCALWYSNLWVFGGGTKLTVLR
